Drawing on publication PMC2903597, this text covers binding for 1 substance.

The chains behind the UniProt entries cited, without tags or fusion partners.
UniProt Q9Y4B6: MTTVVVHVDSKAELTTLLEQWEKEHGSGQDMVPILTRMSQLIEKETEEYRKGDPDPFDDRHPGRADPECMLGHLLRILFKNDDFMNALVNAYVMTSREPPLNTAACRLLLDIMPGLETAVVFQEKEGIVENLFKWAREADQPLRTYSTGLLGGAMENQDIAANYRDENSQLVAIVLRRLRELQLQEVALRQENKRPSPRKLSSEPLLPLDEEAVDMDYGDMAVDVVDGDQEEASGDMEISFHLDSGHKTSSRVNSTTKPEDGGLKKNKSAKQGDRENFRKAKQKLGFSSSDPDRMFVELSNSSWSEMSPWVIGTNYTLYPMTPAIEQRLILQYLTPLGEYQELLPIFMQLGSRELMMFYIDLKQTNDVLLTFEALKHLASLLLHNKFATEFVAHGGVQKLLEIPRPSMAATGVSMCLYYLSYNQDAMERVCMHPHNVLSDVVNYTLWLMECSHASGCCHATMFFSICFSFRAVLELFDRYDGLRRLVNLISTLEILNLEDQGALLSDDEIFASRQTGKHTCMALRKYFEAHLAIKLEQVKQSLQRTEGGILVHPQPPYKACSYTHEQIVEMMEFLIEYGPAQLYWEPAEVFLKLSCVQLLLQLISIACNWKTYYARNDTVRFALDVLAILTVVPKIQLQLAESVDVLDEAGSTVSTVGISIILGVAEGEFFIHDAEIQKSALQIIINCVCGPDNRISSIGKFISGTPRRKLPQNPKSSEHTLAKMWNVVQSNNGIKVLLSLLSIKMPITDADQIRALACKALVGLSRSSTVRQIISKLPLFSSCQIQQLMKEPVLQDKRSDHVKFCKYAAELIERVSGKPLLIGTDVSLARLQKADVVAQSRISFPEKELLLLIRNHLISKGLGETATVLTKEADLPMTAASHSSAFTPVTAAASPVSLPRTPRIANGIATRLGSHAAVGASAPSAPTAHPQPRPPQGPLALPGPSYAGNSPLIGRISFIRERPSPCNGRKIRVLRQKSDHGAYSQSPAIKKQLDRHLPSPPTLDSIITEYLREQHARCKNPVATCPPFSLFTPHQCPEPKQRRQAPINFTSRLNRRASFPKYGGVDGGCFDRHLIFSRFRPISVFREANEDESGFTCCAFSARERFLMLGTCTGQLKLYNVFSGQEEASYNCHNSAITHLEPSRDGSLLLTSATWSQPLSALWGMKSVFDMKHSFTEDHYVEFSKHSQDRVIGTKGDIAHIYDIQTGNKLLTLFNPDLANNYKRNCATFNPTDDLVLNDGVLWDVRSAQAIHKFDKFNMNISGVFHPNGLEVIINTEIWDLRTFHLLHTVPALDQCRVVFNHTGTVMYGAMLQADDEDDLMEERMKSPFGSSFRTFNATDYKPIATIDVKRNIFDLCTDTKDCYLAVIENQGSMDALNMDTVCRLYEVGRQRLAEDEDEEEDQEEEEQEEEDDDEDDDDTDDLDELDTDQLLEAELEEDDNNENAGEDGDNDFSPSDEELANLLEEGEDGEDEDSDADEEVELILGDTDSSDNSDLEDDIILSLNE

The test has as its target T1, GFP-tagged mLgl2 (UniProt Q3TJ91).
T1 sequence: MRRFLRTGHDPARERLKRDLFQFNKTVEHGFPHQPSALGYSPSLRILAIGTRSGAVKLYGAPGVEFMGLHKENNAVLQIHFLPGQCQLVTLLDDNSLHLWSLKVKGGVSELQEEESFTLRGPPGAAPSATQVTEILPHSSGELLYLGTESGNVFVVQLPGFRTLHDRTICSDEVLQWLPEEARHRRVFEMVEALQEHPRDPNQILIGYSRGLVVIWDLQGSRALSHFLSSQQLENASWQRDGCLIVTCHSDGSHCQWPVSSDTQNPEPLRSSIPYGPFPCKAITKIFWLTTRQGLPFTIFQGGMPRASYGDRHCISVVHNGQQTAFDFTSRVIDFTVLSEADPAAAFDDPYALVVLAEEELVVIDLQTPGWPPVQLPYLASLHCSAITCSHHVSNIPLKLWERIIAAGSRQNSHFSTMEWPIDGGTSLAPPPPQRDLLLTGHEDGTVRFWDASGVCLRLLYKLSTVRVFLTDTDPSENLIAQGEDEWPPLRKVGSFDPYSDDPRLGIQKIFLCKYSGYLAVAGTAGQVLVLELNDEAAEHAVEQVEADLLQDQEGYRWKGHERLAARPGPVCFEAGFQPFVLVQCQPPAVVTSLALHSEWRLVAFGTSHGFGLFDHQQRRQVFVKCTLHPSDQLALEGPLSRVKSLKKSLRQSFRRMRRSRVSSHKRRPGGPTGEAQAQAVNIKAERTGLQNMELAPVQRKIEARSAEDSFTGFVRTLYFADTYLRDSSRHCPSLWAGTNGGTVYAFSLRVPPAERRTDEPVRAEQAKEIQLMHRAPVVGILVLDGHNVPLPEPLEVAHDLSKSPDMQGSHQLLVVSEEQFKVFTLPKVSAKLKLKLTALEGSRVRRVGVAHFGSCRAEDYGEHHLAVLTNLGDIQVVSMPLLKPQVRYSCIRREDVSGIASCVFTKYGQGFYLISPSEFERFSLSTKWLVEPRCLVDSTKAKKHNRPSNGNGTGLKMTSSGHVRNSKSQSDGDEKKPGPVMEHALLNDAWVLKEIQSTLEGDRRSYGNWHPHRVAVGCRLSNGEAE
The test can be described thus: co-IP; lysates of GFP-mLgl2-expressing MCF-7 cells, immunoprecipitation with anti-GFP antibody, Western blotting with anti-VprBP antibody. On the technique in general: Immunoblotting shows a protein as a band on a membrane.

No constants are given. Whether binding was seen depends on the method and setting. In cells and extracts the contact can be indirect. Some entries that bind do so weakly or less than the wild type. Sequences can lack the tags named with a protein.

For the substance “VprBP (viral protein R-binding protein), endogenous in MCF-7 cells (from UniProt Q9Y4B6 1-1507)”, the binding entry is recorded as “binds”.
